No constants are given. Whether binding was seen depends on the method and setting. In cells and extracts the contact can be indirect. Some results given as binding are weak or reduced against the parent protein; the word gives no strength. For some assays here: Sequences can lack the tags named with a protein.
T1: C9orf72, wild type, as used in the pull-down experiments (human) (UniProt Q96LT7)
T1 sequence: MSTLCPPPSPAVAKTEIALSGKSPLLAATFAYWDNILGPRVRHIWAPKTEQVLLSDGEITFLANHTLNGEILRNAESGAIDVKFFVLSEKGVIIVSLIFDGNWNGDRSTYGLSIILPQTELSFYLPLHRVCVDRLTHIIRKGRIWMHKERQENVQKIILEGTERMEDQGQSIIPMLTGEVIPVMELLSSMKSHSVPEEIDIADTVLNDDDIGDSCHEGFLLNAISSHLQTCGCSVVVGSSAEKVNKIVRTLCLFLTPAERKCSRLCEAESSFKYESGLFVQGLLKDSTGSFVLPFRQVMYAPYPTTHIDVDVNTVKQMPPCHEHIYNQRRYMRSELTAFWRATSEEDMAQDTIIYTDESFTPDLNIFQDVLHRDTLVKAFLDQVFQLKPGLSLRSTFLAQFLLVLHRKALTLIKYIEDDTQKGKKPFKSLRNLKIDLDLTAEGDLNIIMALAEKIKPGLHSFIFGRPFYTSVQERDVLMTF

T2: WDR41, wild type, with a GST tag for pull down experiments (human) (UniProt Q9HAD4)
T2 sequence: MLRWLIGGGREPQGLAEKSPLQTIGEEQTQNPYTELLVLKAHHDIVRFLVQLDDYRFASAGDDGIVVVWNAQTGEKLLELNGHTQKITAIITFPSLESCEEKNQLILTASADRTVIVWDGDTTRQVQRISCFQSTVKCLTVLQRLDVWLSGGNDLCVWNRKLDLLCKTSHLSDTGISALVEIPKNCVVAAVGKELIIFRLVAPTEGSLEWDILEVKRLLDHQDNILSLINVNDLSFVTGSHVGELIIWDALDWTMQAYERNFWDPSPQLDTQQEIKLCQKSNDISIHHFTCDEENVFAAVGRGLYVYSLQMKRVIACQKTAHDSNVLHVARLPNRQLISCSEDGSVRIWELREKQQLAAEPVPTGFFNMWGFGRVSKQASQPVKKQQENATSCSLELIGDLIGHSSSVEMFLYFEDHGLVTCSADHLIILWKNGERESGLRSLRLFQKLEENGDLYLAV


Columns and labels:
[1] = molecular target: T1, C9orf72, wild type, as used in the pull-down experiments (human); experiment: pull-down
[2] = molecular target: T2, WDR41, wild type, with a GST tag for pull down experiments (human); experiment: pull-down

Row | Binder | binding [1] | binding [2]
1 | Smith-Magenis syndrome chromosome region, candidate 8 (SMCR8), wild type (protein, UniProt Q8TEV9 1-937) MISAPDVVAFTKEEEYEEEPYNEPALPEEYSVPLFPFASQGANPWSKLSGAKFSRDFILISEFSEQVGPQPLLTIPNDTKVFGTFDLNYFSLRIMSVDYQASFVGHPPGSAYPKLNFVEDSKVVLGDSKEGAFAYVHHLTLYDLEARGFVRPFCMAYISADQHKIMQQFQELSAEFSRASECLKTGNRKAFAGELEKKLKDLDYTRTVLHTETEIQKKANDKGFYSSQAIEKANELASVEKSIIEHQDLLKQIRSYPHRKLKGHDLCPGEMEHIQDQASQASTTSNPDESADTDLYTCRPAYTPKLIKAKSTKCFDKKLKTLEELCDTEYFTQTLAQLSHIEHMFRGDLCYLLTSQIDRALLKQQHITNFLFEDFVEVDDRMVEKQESIPSKPSQDRPPSSSLEECPIPKVLISVGSYKSSVESVLIKMEQELGDEEYKEVEVTELSSFDPQENLDYLDMDMKGSISSGESIEVLGTEKSTSVLSKSDSQASLTVPLSPQVVRSKAVSHRTISEDSIEVLSTCPSEALIPDDFKASYPSAINEEESYPDGNEGAIRFQASISPPELGETEEGSIENTPSQIDSSCCIGKESDGQLVLPSTPAHTHSDEDGVVSSPPQRHRQKDQGFRVDFSVENANPSSRDNSCEGFPAYELDPSHLLASRDISKTSLDNYSDTTSYVSSVASTSSDRIPSAYPAGLSSDRHKKRAGQNALKFIRQYPFAHPAIYSLLSGRTLVVLGEDEAIVRKLVTALAIFVPSYGCYAKPVKHWASSPLHIMDFQKWKLIGLQRVASPAGAGTLHALSRYSRYTSILDLDNKTLRCPLYRGTLVPRLADHRTQIKRGSTYYLHVQSMLTQLCSKAFLYTFCHHLHLPTHDKETEELVASRQMSFLKLTLGLVNEDVRVVQYLAELLKLHYMQESPGTSHPMLRFDYVPSFLYKI | binds | binds
2 | SMCR8^M3 (protein, UniProt Q8TEV9 1-937) MISAPDVVAFTKEEEYEEEPYNEPALPEEYSVPLFPFASQGANPWSKLSGAKFSRDFILISEFSEQVGPQPLLTIPNDTKVFGTFDLNYFSLRIMSVDYQASFVGHPPGSAYPKLNFVEDSKVVLGDSKEGAFAYVHHLTLYDLEARGFVRPFCMAYISADQHKIMQQFQELSAEFSRASECLKTGNRKAFAGELEKKLKDLDYTRTVLHTETEIQKKANDKGFYSSQAIEKANELASVEKSIIEHQDLLKQIRSYPHRKLKGHDLCPGEMEHIQDQASQASTTSNPDESADTDLYTCRPAYTPKLIKAKSTKCFDKKLKTLEELCDTEYFTQTLAQLSHIEHMFRGDLCYLLTSQIDRALLKQQHITNFLFEDFVEVDDRMVEKQESIPSKPSQDRPPSSSLEECPIPKVLISVGSYKSSVESVLIKMEQELGDEEYKEVEVTELSSFDPQENLDYLDMDMKGSISSGESIEVLGTEKSTSVLSKSDSQASLTVPLSPQVVRSKAVSHRTISEDSIEVLSTCPSEALIPDDFKASYPSAINEEESYPDGNEGAIRFQASISPPELGETEEGSIENTPSQIDSSCCIGKESDGQLVLPSTPAHTHSDEDGVVSSPPQRHRQKDQGFRVDFSVENANPSSRDNSCEGFPAYELDPSHLLASRDISKTSLDNYSDTTSYVSSVASTSSDRIPSAYPAGLSSDRHKKRAGQNALKFIRQYPFAHPAIYSLLGGKGSGGLGEDEAIVRKLVTALAIFVPSYGCYAKPVKHWASSPLHIMDFQKWKLIGLQRVASPAGAGTLHALSRYSRYTSILDLDNKTLRCPLYRGTLVPRLADHRTQIKRGSTYYLHVQSMLTQLCSKAFLYTFCHHLHLPTHDKETEELVASRQMSFLKLTLGLVNEDVRVVQYLAELLKLHYMQESPGTSHPMLRFDYVPSFLYKI |  | no binding
3 | SMCR8^M4 (protein, UniProt Q8TEV9 1-937) MISAPDVVAFTKEEEYEEEPYNEPALPEEYSVPLFPFASQGANPWSKLSGAKFSRDFILISEFSEQVGPQPLLTIPNDTKVFGTFDLNYFSLRIMSVDYQASFVGHPPGSAYPKLNFVEDSKVVLGDSKEGAFAYVHHLTLYDLEARGFVRPFCMAYISADQHKIMQQFQELSAEFSRASECLKTGNRKAFAGELEKKLKDLDYTRTVLHTETEIQKKANDKGFYSSQAIEKANELASVEKSIIEHQDLLKQIRSYPHRKLKGHDLCPGEMEHIQDQASQASTTSNPDESADTDLYTCRPAYTPKLIKAKSTKCFDKKLKTLEELCDTEYFTQTLAQLSHIEHMFRGDLCYLLTSQIDRALLKQQHITNFLFEDFVEVDDRMVEKQESIPSKPSQDRPPSSSLEECPIPKVLISVGSYKSSVESVLIKMEQELGDEEYKEVEVTELSSFDPQENLDYLDMDMKGSISSGESIEVLGTEKSTSVLSKSDSQASLTVPLSPQVVRSKAVSHRTISEDSIEVLSTCPSEALIPDDFKASYPSAINEEESYPDGNEGAIRFQASISPPELGETEEGSIENTPSQIDSSCCIGKESDGQLVLPSTPAHTHSDEDGVVSSPPQRHRQKDQGFRVDFSVENANPSSRDNSCEGFPAYELDPSHLLASRDISKTSLDNYSDTTSYVSSVASTSSDRIPSAYPAGLSSDRHKKRAGQNALKFIRQYPFAHPAIYSLLSGRTLVVLGEDEAIVRKLVTALAIFVPSYGCYAKPVKHWASSPLHIMDFQKWKLIGLQRVASPAGAGTLHALSRYSRYGGKGSLDNKTLRCPLYRGTLVPRLADHRTQIKRGSTYYLHVQSMLTQLCSKAFLYTFCHHLHLPTHDKETEELVASRQMSFLKLTLGLVNEDVRVVQYLAELLKLHYMQESPGTSHPMLRFDYVPSFLYKI |  | no binding
4 | SMCR8^M5 (truncation after residue 910K) (domain or fragment, UniProt Q8TEV9 1-910) MISAPDVVAFTKEEEYEEEPYNEPALPEEYSVPLFPFASQGANPWSKLSGAKFSRDFILISEFSEQVGPQPLLTIPNDTKVFGTFDLNYFSLRIMSVDYQASFVGHPPGSAYPKLNFVEDSKVVLGDSKEGAFAYVHHLTLYDLEARGFVRPFCMAYISADQHKIMQQFQELSAEFSRASECLKTGNRKAFAGELEKKLKDLDYTRTVLHTETEIQKKANDKGFYSSQAIEKANELASVEKSIIEHQDLLKQIRSYPHRKLKGHDLCPGEMEHIQDQASQASTTSNPDESADTDLYTCRPAYTPKLIKAKSTKCFDKKLKTLEELCDTEYFTQTLAQLSHIEHMFRGDLCYLLTSQIDRALLKQQHITNFLFEDFVEVDDRMVEKQESIPSKPSQDRPPSSSLEECPIPKVLISVGSYKSSVESVLIKMEQELGDEEYKEVEVTELSSFDPQENLDYLDMDMKGSISSGESIEVLGTEKSTSVLSKSDSQASLTVPLSPQVVRSKAVSHRTISEDSIEVLSTCPSEALIPDDFKASYPSAINEEESYPDGNEGAIRFQASISPPELGETEEGSIENTPSQIDSSCCIGKESDGQLVLPSTPAHTHSDEDGVVSSPPQRHRQKDQGFRVDFSVENANPSSRDNSCEGFPAYELDPSHLLASRDISKTSLDNYSDTTSYVSSVASTSSDRIPSAYPAGLSSDRHKKRAGQNALKFIRQYPFAHPAIYSLLSGRTLVVLGEDEAIVRKLVTALAIFVPSYGCYAKPVKHWASSPLHIMDFQKWKLIGLQRVASPAGAGTLHALSRYSRYTSILDLDNKTLRCPLYRGTLVPRLADHRTQIKRGSTYYLHVQSMLTQLCSKAFLYTFCHHLHLPTHDKETEELVASRQMSFLKLTLGLVNEDVRVVQYLAELLK |  | no binding
